In publication PMC11973282 (Frontiers in Oncology, 2025):

Assay: general procedure: Fmoc solid-phase peptide synthesis; Wong's polymer; 1,3-Diisopropylcarbodiimide with hydroxybenzotriazole
Details: whole synthesis

**Q.** Which isolated yield does the source give for TKDNNLLGRFELSG-Beta-Ala-RGD here?
**A.** ≥90%

**Q.** And the “final purity (method not given)” value (RP-HPLC, Waters Delta-Pak analytical column)?
**A.** ≥90%
